Values from PubChem BioAssay AID1259254 (NCATS, 2017).
Test: 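Genome-wide screen for genes that prevent DNA re-replication in cancer cells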 (primary screen). Cell system: human HCT116 colorectal cancer cells. Reagents: single siRNA against human genes. Time to read-out: 3 days. Detection: 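Imaged Hoechst DNA stain sorts each cell into a cycle phase by DNA amount; per plate, G2 fraction set to 0% for non-targeting and 100% for GMNN siRNA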. Reading the numbers: G2 robust z-score: higher = more G2 cells, more excess DNA replication. Active means: 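Active siRNAs have a G2 robust z of 5 or more median absolute deviations over the median, which in these data means about 38% or higher of GMNN control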.
Shown is one part, drawn at random, of about 59,000 reagents. Over the whole deposit, about 1,550 (2.6%) were called active. 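G2 share is only a proxy for re-replication; each gene was hit by three separate siRNAs, and active genes were retested.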 A number with no mark means an inactive call. The numbers tell different reagents against one gene apart. Further read-outs or replicates are left out here. No sequences are given here. Not stated in the record: the amount of reagent.

{"Target gene": "WNT2B", "reagent no.": 1, "G2 robust z-score": -0.547}
{"Target gene": "WNT2B", "reagent no.": 2, "G2 robust z-score": 2.23}
{"Target gene": "WNT2B", "reagent no.": 3, "G2 robust z-score": -0.492}
{"Target gene": "PTPN12", "reagent no.": 1, "G2 robust z-score": -0.666}
{"Target gene": "PTPN12", "reagent no.": 2, "G2 robust z-score": -0.23}
{"Target gene": "PTPN12", "reagent no.": 3, "G2 robust z-score": -0.336}
{"Target gene": "CD58", "reagent no.": 1, "G2 robust z-score": 4.64}
{"Target gene": "CD58", "reagent no.": 2, "G2 robust z-score": -0.436}
{"Target gene": "CD58", "reagent no.": 3, "G2 robust z-score": 2.03}

Already shown: 2 of the entries above.
{"Target gene": "CD58", "reagent no.": 2, "G2 robust z-score": -0.436}
{"Target gene": "CD58", "reagent no.": 3, "G2 robust z-score": 2.03}

The list goes on:
{"Target gene": "HLA-E", "reagent no.": 1, "G2 robust z-score": 1}
{"Target gene": "HLA-E", "reagent no.": 2, "G2 robust z-score": -0.329}
{"Target gene": "HLA-E", "reagent no.": 3, "G2 robust z-score": -0.499}
{"Target gene": "HK3", "reagent no.": 1, "G2 robust z-score": -0.82}
{"Target gene": "HK3", "reagent no.": 2, "G2 robust z-score": 1.14}
{"Target gene": "HK3", "reagent no.": 3, "G2 robust z-score": -0.383}
{"Target gene": "ZDHHC19", "reagent no.": 1, "G2 robust z-score": -0.451}
{"Target gene": "ZDHHC19", "reagent no.": 2, "G2 robust z-score": 0.192}
{"Target gene": "ZDHHC19", "reagent no.": 3, "G2 robust z-score": -0.253}
